Primary screen of a compound library

From ChEMBL document CHEMBL3988442, “University of Dundee, Small-Polar-MMV Screening Library” (2021).

Mtb cholesterol medium: 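Whole-cell growth test on Mycobacterium tuberculosis, read after 4 days in a medium based on cholesterol and the lipid DPPC; the read-out is not stated. Concentration: 50 µM. The record gives no direction; compounds that gave an IC50 in retests scored well above the rest, so higher reads as more growth inhibition. Of about 69,000 compounds tested this way, about 370 (0.54%) reached 50% or more in at least one test.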
Mtb glucose medium: 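Phenotypic screen: M. tuberculosis growth, glucose 7H9 medium, 3 days; the read-out is not stated. Compounds at 50 µM. Direction is inferred from retests: higher values go with more growth inhibition. Of about 69,000 compounds tested this way, about 760 (1.1%) reached 50% or more in at least one test.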

The filed quantity is “Percent Effect” (%).
The record does not define 0% and 100%; most values in the screen are far below 50% and negative numbers occur (in some assays of this library far below -100).
This is an unselected part of the compounds tested.
Two or more numbers in one place are separate tests of the same structure; such repeats can differ widely.

structure	Mtb cholesterol medium	Mtb glucose medium
CCC[C@@H]1CN(Cc2ccc3c(c2)OCCO3)C[C@H]1C(=O)O	-12.34% & 63.42%	-10.14%
Brc1cccc(-c2noc(CN3CCOCC3)n2)c1	12.37%	21.46% & 7.718%
COCC(=O)N1CCCC(c2noc3nc(C)cc(C(F)(F)F)c23)C1 (stereo not drawn)	-5.792%	15.76%
Cn1cccc1C(=O)N1CC2(CCN(C(=O)c3cccnc3)C2)C1.O=C(O)C(F)(F)F	13.97%	34.09%
N#Cc1cc(NC(=O)c2ccccc2)ccc1N1CCC(O)CC1	28.99%	28.51%
CCOCc1nc2c(c(N(C)Cc3snnc3C)n1)CCNCC2	1.402%	7.629% & 13.33%
Cc1ccc(CN(C)C(=O)c2ccc(NC3CC3)nc2)o1	17.82%	24.14%
CS(=O)(=O)C1CCN(S(=O)(=O)Cc2cccc(F)c2)CC1	4.048%	-29.39%
O=C(c1cccnc1)N1Cc2[nH]nc(COCCO)c2C1	16.64%	0.4828% & -1.037%
CC(C)Cc1noc(CN2CCOCC2)n1	-21.07%	-11.33%
[H][C@@]12CCN(Cc3c(C)noc3C)C[C@@]1([H])O[C@@H](c1nccs1)C2	-11.84%	29.67%
O=C(O)CCNC(=O)Cc1csc(-c2cccc(Cl)c2)n1	6.917%	17.98%
CC(C)CCN1CCC2(CNS(=O)(=O)c3cccnc3O2)C1 (stereo not drawn)	-35.78%	-27.39%
CC(C)(CN1CCC(Cc2ccc(CO)cc2)C1)N1CCOCC1 (stereo not drawn)	19.35%	-11.96%
CC(C)NC(=O)COc1ccc(-c2nc(C(C)C)no2)cc1	12.13%	5.83%
Cc1cccc(S(=O)(=O)N2Cc3nccn3CC(CN(C)C)C2)c1 (stereo not drawn)	-3.804%	-14.18%
N#Cc1ccc(CN2CCN(c3cncc(Cl)n3)CC2=O)cc1	-2.332%	-7.584%
CCNc1cc2c(nn1)CCN(C(=O)Cc1c(C)nn(C)c1C)C2	-3.863%	-23.67%
O=C(COC1CCCC1)NCCc1nc(-c2ccccn2)cs1	-2.263%	14.91%
CCC(=O)NCCc1cc(N2CCN(C(C)=O)CC2)nc(C2CC2)n1	-17.14%	-3.666%
CS(=O)(=O)N1CC2(CCN(CC3CCCCC3)CC2)Cc2ccccc21	-6.514%	7.555%
O=C(NCC(O)c1ccc(F)c(F)c1)c1cccnc1OCC(F)(F)F (stereo not drawn)	0.3913%	31%
CC(C)Cn1cnc(S(=O)(=O)Nc2cccnc2-n2cccn2)c1	7.837%	3.078%
COc1ccc(CC(=O)NCCCc2nnc3nc(C)cc(C)n23)cc1	14.36%	22.16%
O=C(NCc1ccccc1CN1CCC(O)CC1)Nc1cccnc1	20.19%	12.15%
COCCn1ccc(NC(=O)Nc2ccc(C)cc2)n1	-9.707%	-20.23%
O=C(CCN1C(=O)CCC1=O)Nc1ccc(Oc2ccc(Cl)cc2)nc1	-14.76%	-19.2%
CCCc1nc(N(C)CCN2CCCCCC2)c2cnn(C)c2n1	2.728%	35.24% & 45.24%
CNC(=O)CCS(=O)(=O)Cc1cc(Cl)c2c(c1)OCCCO2	-7.246%	-17.95%
Cc1nc2cc(=O)[nH]n2c(C)c1CC(=O)NCc1ccoc1	-1.766%	-27.22%
O=C(Cc1ccccc1)N1CCC2(CC(=O)N(c3cccc(F)c3)C2)C1 (stereo not drawn)	23.21%	13.28%
CCOC(=O)N1CCN(C(=O)c2snnc2-c2ccc(OC)cc2)CC1	14.28%	5.25% & -4.396%
Cc1ccc(CN2CCC3(CC2)C(=O)Nc2ccccc23)s1.O=C(O)C(F)(F)F	-1.325%	24.27%
C=Cc1ccc(C(=O)N2CCCC(Nc3ccc(OC)cc3)C2)cc1 (stereo not drawn)	36.22%	46.86%
Cn1ccc(-c2cc(C(=O)N3CCC(O)CC3)c3ccccn23)n1	7.077%	90.84%
CCCNc1cc(-c2c[nH]nc2C2CCN(C(=O)C3CCC3)C2)ccn1 (stereo not drawn)	-20.01% & -9.352%	-12.48%
CCc1c(C)n(CCOC)c2nc3ccccc3n2c1=O	-9.164%	3.635% & -0.4743%
Cn1nc(Br)nc1Sc1ccccc1NC(=O)C1CC1	-8.518%	27.17%
COc1cccc(-c2cnc3n2CCC32CCN(C(C)=O)CC2)c1	-8.226%	-11.37% & -49.07%
Cc1cccnc1CNCC1(O)CCCN(CC2CCCCC2)C1=O (stereo not drawn)	4.422%	8.231%
COc1cc(C)nc(N2CCN(C(=O)c3ccc(Cl)o3)CC2)n1	12.82%	39.96%
O=C(CN1C(=O)CCC1=O)N1Cc2cncnc2C1	5.094%	-0.912% & 9.829%
CC(=O)N1CCOCC2(C1)CN(S(C)(=O)=O)CCO2 (stereo not drawn)	32.27%	4.672% & -3.877%
Cc1ccc(OCC2CCCN(C(=O)CN3CCOCC3)C2)cc1 (stereo not drawn)	-2.991%	-8.235% & 2.476%
Cc1cccc(CS(=O)(=O)c2nnc(N3CCOCC3)s2)c1	5.296%	0.3422% & 5.678%
CC(C)c1nccn1-c1nccnc1C1CCCN1Cc1cccnc1 (stereo not drawn)	0.9014%	-6.609%
Cc1cccc(CN2C[C@@H](C)[C@@]3(CCN(CC(=O)N(C)C)C3=O)C2)c1.O=C(O)C(F)(F)F	17.86%	-1.096%
CSCc1nc(CNC(=O)C2CCCN(C(=O)N(C)C)C2)cs1 (stereo not drawn)	-18.04%	-16.65%
CCOc1ccnc(N2CCN(C(=O)c3ccncc3)CC2)n1	14.09%	13.38%
Cc1ccoc1C(=O)N1CCCN(Cc2cnn(C)c2)CC1	14.46%	16.21%
CCOCC1(CNCc2cc(O)c3cc(C)ccc3n2)CC1	6.015%	-10.97% & 8.379%
CN(C)c1ncccc1NC(=O)COC1CCCC1	5.756%	-9.815% & 6.303%
Cc1ncc(CC(=O)N2CCCC(COc3ccccc3F)C2)c(=O)[nH]1 (stereo not drawn)	9.467%	32.42% & 4.961%
COC(=O)c1ccn(COc2ccccc2Cl)n1	-10.68%	-0.3464%
O=C(c1ccc(-c2cnco2)cc1)N1CCC(Nc2cccnn2)CC1	-16.4%	10.35%
CC(C)NC(=O)c1nn(C)c(NC(=O)Cc2ccccc2)c1F	-1.571%	-0.5104% & -10.31%
Cc1nc(N2CCN3CCCCC3C2)nc2cc(S(C)(=O)=O)ccc12 (stereo not drawn)	-10.71%	15.01%
[H][C@@]12CS(=O)(=O)C[C@]1([H])N(C(=O)c1cc(C(C)C)on1)CCN2C(=O)C(C)C	-20.47%	-7.382% & -9.691%
CCCn1ncc(C(=O)N2CCN(C(=O)c3ccc[nH]3)CC2)c1C	-19.91%	0.9467% & -10.6%
OC[C@@H](O)CN(CCC(F)(F)F)c1ncc(Cl)cn1	3.603%	10.98%
COc1cccc(N2CCC(CNC(=O)CN3CSCC3=O)C2)c1 (stereo not drawn)	12.26%	36.52%
CSc1ccc(C)c(C(=O)Nc2c(C(N)=O)n[nH]c2C)c1	-7.475%	-23%
CN1CCNC(=O)C12CCN(C(=O)c1ccc3[nH]c(=O)[nH]c3c1)CC2	13.62%	-4.305%
Cc1n[nH]c(C2CN(CCc3cccs3)CCO2)n1 (stereo not drawn)	-18.31%	-14.38%
Cc1ccc(F)cc1-n1c(COC(C)C)n[nH]c1=O	-25.64% & 0.8475%	3.377% & -25.02%

Once more, the final 6:

structure	Mtb cholesterol medium	Mtb glucose medium
OC[C@@H](O)CN(CCC(F)(F)F)c1ncc(Cl)cn1	3.603%	10.98%
COc1cccc(N2CCC(CNC(=O)CN3CSCC3=O)C2)c1 (stereo not drawn)	12.26%	36.52%
CSc1ccc(C)c(C(=O)Nc2c(C(N)=O)n[nH]c2C)c1	-7.475%	-23%
CN1CCNC(=O)C12CCN(C(=O)c1ccc3[nH]c(=O)[nH]c3c1)CC2	13.62%	-4.305%
Cc1n[nH]c(C2CN(CCc3cccs3)CCO2)n1 (stereo not drawn)	-18.31%	-14.38%
Cc1ccc(F)cc1-n1c(COC(C)C)n[nH]c1=O	-25.64% & 0.8475%	3.377% & -25.02%